Test results reported in the supplement of paper PMC11006884.
The list shows a part of the results, in another mix than the full data. Single values of this set are uncertain.

The chains behind the UniProt entries cited, without tags or fusion partners. Where a name states a change or a piece, a line headed by the entry shows the natural chain unless it says otherwise.
UniProt O75616: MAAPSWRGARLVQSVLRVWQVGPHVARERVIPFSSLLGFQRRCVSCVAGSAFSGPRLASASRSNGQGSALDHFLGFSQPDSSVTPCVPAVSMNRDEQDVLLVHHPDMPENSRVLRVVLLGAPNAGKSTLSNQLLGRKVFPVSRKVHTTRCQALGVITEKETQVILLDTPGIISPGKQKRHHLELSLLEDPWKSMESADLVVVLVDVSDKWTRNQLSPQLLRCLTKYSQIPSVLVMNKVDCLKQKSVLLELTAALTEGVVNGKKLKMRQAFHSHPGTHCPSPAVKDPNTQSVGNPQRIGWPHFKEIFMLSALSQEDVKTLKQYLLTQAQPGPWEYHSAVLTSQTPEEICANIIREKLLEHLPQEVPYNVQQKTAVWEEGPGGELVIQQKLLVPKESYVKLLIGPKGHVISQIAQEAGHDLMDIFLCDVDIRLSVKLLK
UniProt O76071: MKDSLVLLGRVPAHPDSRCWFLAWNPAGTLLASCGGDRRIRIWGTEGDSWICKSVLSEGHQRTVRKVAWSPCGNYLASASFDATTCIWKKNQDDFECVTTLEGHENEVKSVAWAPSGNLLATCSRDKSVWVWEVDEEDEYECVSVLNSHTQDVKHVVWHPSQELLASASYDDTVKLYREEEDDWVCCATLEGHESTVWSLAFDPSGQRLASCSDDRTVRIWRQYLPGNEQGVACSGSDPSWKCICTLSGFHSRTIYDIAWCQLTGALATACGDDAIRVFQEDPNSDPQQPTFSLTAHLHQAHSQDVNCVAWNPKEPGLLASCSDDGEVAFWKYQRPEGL
UniProt O43491, whole entry, looked up: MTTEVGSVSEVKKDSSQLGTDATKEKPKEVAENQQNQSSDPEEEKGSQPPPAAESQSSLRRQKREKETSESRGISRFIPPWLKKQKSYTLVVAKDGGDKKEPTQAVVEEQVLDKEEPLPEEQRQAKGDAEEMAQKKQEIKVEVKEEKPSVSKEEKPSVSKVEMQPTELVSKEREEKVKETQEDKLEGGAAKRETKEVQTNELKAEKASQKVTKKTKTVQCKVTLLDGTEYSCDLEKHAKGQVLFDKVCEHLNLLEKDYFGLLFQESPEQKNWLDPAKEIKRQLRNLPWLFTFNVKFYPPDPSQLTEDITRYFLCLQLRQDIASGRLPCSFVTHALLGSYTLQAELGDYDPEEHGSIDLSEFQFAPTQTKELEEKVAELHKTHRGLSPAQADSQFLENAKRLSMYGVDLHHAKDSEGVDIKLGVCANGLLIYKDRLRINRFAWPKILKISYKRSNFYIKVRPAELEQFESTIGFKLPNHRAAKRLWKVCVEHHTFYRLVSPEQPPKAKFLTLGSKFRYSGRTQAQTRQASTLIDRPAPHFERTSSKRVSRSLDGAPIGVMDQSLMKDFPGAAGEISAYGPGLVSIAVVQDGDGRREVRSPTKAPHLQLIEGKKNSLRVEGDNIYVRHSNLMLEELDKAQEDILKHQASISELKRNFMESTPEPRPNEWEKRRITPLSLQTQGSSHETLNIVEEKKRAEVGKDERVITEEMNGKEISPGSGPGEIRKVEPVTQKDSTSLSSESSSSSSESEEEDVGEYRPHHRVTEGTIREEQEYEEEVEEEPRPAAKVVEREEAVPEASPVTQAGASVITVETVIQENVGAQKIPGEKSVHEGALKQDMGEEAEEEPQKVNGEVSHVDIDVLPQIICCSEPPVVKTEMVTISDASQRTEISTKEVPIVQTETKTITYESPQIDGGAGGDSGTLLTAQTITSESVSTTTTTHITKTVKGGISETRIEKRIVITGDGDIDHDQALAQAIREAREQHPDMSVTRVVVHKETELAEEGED
UniProt O75533, whole entry, looked up: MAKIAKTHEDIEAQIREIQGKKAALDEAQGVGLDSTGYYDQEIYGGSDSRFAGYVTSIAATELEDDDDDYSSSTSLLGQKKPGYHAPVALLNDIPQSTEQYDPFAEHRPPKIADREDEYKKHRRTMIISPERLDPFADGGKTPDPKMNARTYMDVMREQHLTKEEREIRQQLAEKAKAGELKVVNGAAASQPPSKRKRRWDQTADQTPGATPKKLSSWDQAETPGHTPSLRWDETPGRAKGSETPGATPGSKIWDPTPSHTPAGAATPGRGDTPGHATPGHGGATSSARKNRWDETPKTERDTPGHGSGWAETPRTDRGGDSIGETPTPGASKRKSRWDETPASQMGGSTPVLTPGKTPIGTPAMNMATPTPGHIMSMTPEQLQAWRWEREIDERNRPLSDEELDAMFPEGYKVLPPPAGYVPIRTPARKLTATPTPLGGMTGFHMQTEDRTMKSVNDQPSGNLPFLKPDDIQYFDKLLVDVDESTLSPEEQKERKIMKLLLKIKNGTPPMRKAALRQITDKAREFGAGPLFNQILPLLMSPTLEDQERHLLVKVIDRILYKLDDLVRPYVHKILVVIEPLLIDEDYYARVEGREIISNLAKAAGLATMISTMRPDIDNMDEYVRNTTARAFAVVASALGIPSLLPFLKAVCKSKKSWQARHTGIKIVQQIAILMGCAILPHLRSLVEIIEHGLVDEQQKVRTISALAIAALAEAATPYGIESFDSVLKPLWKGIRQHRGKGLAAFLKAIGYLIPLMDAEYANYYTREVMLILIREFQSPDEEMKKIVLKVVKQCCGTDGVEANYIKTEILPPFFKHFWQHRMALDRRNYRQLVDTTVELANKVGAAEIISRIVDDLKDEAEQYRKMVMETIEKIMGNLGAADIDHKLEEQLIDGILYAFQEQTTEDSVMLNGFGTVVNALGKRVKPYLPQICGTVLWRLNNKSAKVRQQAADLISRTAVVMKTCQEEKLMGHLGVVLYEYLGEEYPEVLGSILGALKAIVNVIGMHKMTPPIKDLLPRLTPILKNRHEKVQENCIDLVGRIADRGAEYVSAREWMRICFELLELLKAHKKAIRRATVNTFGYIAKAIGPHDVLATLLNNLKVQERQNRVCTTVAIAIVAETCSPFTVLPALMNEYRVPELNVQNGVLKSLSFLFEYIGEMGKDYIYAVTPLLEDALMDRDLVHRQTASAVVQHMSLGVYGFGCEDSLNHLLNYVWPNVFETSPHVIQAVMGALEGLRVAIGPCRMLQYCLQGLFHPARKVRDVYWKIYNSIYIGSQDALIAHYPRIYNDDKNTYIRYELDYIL
UniProt O43264: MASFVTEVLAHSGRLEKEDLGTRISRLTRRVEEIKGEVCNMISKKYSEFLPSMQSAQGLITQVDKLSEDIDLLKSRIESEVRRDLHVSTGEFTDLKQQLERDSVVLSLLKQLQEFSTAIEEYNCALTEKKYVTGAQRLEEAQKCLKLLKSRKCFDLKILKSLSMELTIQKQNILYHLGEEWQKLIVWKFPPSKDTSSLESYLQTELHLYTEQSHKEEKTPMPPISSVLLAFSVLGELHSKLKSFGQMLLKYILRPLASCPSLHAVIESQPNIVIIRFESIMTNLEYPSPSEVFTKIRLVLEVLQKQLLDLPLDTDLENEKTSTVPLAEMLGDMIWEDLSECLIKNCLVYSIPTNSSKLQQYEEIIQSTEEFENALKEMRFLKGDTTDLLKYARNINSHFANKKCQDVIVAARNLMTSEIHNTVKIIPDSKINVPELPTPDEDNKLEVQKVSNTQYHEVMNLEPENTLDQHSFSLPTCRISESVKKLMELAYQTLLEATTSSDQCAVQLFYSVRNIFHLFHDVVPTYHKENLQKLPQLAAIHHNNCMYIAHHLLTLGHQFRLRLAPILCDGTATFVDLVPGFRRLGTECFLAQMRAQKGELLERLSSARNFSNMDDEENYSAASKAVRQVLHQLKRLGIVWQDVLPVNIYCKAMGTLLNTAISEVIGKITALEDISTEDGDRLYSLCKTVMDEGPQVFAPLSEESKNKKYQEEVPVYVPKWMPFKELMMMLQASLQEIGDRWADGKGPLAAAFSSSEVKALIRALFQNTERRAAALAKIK
UniProt O75947: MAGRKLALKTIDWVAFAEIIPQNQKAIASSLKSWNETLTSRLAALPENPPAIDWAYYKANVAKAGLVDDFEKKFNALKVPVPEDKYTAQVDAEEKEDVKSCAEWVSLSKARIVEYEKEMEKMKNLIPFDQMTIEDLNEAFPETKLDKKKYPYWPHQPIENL
UniProt O43488: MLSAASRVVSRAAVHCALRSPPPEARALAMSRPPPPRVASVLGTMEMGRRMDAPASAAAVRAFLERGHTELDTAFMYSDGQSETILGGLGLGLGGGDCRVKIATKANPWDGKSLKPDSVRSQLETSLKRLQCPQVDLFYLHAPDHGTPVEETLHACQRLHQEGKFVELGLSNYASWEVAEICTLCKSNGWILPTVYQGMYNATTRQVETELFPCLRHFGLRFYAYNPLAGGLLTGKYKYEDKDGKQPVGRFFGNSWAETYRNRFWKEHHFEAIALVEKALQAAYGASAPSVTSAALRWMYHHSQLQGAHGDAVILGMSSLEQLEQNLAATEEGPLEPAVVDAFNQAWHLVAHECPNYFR
UniProt O75694: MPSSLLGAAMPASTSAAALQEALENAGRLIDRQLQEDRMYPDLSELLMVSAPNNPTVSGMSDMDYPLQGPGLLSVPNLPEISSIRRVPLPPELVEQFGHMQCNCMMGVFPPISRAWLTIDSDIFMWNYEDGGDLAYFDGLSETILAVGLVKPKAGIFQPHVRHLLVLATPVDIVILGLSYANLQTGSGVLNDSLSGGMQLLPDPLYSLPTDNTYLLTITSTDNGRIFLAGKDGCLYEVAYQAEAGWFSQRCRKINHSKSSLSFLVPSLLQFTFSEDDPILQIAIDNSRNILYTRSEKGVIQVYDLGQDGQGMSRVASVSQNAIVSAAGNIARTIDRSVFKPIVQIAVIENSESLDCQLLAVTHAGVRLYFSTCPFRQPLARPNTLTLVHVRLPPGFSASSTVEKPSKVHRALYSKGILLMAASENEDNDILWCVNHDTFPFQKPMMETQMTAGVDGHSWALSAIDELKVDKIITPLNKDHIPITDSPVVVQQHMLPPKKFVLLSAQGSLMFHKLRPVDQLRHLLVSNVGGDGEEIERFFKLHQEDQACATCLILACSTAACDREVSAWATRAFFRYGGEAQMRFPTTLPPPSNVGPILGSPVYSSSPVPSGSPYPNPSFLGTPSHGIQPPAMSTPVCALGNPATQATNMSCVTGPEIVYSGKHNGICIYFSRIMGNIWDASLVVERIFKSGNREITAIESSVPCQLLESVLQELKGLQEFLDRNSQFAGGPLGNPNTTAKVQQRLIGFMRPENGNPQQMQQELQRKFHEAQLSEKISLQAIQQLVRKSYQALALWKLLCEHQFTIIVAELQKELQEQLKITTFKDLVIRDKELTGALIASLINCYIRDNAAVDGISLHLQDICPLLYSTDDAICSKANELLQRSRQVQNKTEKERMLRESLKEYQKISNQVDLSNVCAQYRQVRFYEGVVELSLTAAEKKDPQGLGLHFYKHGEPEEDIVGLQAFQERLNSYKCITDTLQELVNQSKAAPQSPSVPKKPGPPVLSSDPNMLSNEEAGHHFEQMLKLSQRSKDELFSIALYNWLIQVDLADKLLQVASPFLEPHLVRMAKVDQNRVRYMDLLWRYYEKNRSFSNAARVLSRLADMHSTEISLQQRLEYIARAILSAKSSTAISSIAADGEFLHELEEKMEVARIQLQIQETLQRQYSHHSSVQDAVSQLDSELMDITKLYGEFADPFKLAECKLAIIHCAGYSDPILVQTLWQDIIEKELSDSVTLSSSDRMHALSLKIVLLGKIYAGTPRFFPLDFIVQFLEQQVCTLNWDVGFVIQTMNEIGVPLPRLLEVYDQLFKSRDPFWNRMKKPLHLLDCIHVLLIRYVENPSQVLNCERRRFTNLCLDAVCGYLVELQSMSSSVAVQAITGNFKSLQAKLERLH
UniProt O60934: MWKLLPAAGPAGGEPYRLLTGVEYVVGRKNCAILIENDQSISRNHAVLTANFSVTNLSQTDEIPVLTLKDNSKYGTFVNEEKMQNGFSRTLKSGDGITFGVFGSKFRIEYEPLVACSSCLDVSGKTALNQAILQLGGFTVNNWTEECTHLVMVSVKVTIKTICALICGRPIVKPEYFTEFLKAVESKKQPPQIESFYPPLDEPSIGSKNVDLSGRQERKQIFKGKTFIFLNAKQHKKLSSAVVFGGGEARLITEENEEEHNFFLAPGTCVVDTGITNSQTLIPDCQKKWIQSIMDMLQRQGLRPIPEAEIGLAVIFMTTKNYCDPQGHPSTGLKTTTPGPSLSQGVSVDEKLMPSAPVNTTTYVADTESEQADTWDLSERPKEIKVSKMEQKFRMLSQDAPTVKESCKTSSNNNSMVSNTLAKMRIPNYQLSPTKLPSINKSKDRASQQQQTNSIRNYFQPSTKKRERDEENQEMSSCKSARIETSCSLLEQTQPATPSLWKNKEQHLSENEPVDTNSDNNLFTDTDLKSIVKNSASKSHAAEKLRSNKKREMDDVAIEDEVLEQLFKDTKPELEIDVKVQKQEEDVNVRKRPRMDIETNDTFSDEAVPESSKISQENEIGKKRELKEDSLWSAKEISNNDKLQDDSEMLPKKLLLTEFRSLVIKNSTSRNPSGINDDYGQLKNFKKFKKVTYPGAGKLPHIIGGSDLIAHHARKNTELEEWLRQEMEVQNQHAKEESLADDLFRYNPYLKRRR

The targets below were run with COC(=O)/C=C/c1ccccc1 [methyl cinnamate] (assay: log2 ratio of iodoacetamide-alkyne labeling of the cysteine site, DMSO over compound (competition); higher = stronger covalent engagement of the cysteine by the compound, active = 1 or more). Conditions: 500 µM; treatment time 1 h; system: HEK293T cell lysate.
Summary of the method: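 HEK293T lysate (2 mg/mL) was treated with DMSO or electrophile (500 µM, 1 h, ambient temperature), then iodoacetamide alkyne (1 h), clicked to sCIP-TMT reagents, pooled, trypsin-digested overnight at 37 °C, streptavidin-enriched and acid-eluted. Peptides were run on Orbitrap Eclipse LC-MS/MS with FAIMS and quantified in FragPipe. The log2 competition ratio per cysteine is mean control-channel over mean compound-channel reporter intensity. Duplicate channels and three replicates were used, and cysteines quantified in only one replicate were excluded.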

log2 ratio of iodoacetamide-alkyne labeling, inactive:
UniProt O75153_C184 0.123
ERAL1 C348 (UniProt O75616) 0.162
CIAO1 C234 (UniProt O76071) 0.148
EPB41L2 C424 (UniProt O43491) 0.149
SF3B1 C1059 (UniProt O75533) -0.278
ZW10 C124 (UniProt O43264) -0.223
UniProt O75947_C101 0.152
AKR7A2 C214 (UniProt O43488) -0.128
NUP155 C917 (UniProt O75694) 0.229
NBN C487 (UniProt O60934) 0.349
LYPLA1 C169 (UniProt O75608) 0.00126
WIPF1 C446 (UniProt O43516) 0.281
FZD6 C615 (UniProt O60353) 0.323
PAK3 C424 (UniProt O75914) 0.281
UniProt O75153_C153 0.109

No new results follow: an excerpt of the list.
log2 ratio of iodoacetamide-alkyne labeling, inactive:
SF3B1 C1059 (UniProt O75533) -0.278
ZW10 C124 (UniProt O43264) -0.223
